The campaign covered roughly 31,000 sequences. About 1,400 (4.5%) were called active.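 The calls were made as follows: active = median seed-adjusted z-score above 1 or below -1; inactive = the rest.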 The list shows a part of the results.
Assay: Novel Modifiers of Survival Motor Neuron (SMN) Protein: Gene Identification via Genome-wide siRNA Screen;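 also: luminescence tracks full-length SMN protein made from the SMN2 reporter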
Details: HEK293T SMN2-luciferase reporter, siRNA knockdown, 72 h; actives lie on both sides
Method in brief: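 HEK293T cells stably expressing an SMN2 splicing/cDNA-luciferase reporter were reverse-transfected with a druggable-genome siRNA library and read by luminescence at 72 hours; hits defined by MAD score above 1.0 or below -1.0.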

Sequence	median seed-adjusted z-score
CCAGGUAUUUUUAUAACAATT against TFPI	inactive: -0.0076
CACCGACACCAGACCAGAATT against ZP3	inactive: 0.495
GCAUAUGGACAAACCGGAATT against KIF3A	inactive: 0.119
UCCCGCUUCCUUAUCCUUATT against CDK5R2	inactive: -0.0965
CAAACUACGGGAACUUGAATT against IRX2	inactive: -0.409
GCAGAGUUUCGUACAAGGATT against KPNA6	active: -1.54
AGAACGCGCCCGAGAAGAATT against FOXC2	inactive: -0.792
AAACGAUGUUGAUGUCCAATT against ATP6V1E1	inactive: -0.312
AGUGCACUCUGGACCCAGATT against ACSBG1	inactive: 0.113
GAUCCUCUCUGAAUCGGCATT against FAM48A	inactive: -0.506
GCCCAUAUACAUUCUGCAATT against GUCY1B3	inactive: -0.19
GGUCCAAGAUCAAACCCGATT against GLI3	inactive: 0.143
GGAUGAAGGUUUUGGUAAATT against ZNF165	inactive: 0.602
GGACAGGAGCGGUAUCACATT against RAB5C	inactive: -0.529
CAAUUACGAAUAGAAUUGATT against WEE1	active: -4.05
GGCUUUUAAGACUAAGGAATT against TRIM69	inactive: 0.214
CCUUUAGUGAGGCAAAGAATT against ZBTB40	inactive: 0.187
CGCUGAAGUUUGUCCCUAATT against SEPX1	inactive: -0.0545
CUUCCACUCAAGAAUCGUATT against BACH1	inactive: -0.404
GGAAAAACCAACCAAGUUATT against RUFY1	inactive: 0.119
GGAGCUUCCCUAUAGUGAATT against HDAC3	inactive: 0.579
GCCUAUUAGUAAUGCUGAUTT against CTDSPL	inactive: 0.43

Sequence	median seed-adjusted z-score
AAAUCCGUCCUGUUCCAUATT against LARGE	inactive: -0.436
CGCCUUUAUGGACCACAUATT against NR2F2	inactive: 0.129
GCCUUUACAAGAUAGAGUUTT against ZKSCAN3	inactive: 0
CCAAUACAAUCGGAUCUCUTT against NRIP2	inactive: 0.415
CACUAACUGUUUCGAAUGATT against CAPZA1	inactive: -0.0237
CCCGUUCUACUAUGACUAUTT against FXYD2	inactive: -0.383
GCUCCUUUAGGUUAUGAUATT against ASH2L	inactive: -0.464
CCUUCAAGGUGUGCAAGUATT against ZNF420	inactive: -0.5
CGUUUGUACGGAAUGAUAATT against PPP2R3B	inactive: 0
GCAGGACGUAUGCAAGACATT against CHST5	inactive: 0.0149
GAUCGUUACUCGCAUCAAUTT against MYO1D	inactive: -0.201
AGGUCAGGGUUACAGCUUUTT against MPP2	inactive: 0.0496
GGUUCAUUGCAACACCCAUTT against HSD17B8	inactive: 0.411
CCAAGGAUAUUUCAGCUAATT against USP37	inactive: 0.0907
CCACGAAGUUUCGAACGGATT against PTPN14	inactive: 0
CCAGCGCAACAAAGGAAAATT against HMX1	active: 1.3
GAUUGAUGCUGAUGUAACATT against DLD	inactive: 0.377
AGACCAUCCACAACGAUUATT against CA6	inactive: 0.349
CGGACUCACCAUAUCCUUUTT against HIPK2	inactive: 0.156
UGGUGAAAAUUACAUCUGATT against CIP29	active: -1.18
CGUCAUCACCCUCAACUAUTT against NLGN3	inactive: -0.0279
CGAUGUGGGCUGCAACAAATT against PURB	inactive: 0

Sequence	median seed-adjusted z-score
GCUUCAAUGAGACAACCCUTT against IP6K2	inactive: -0.193
CCAUCGAGUUUGUUACCCATT against GRIK2	inactive: 0.00242
GCACCUUCCCAACCAUCAATT against GPX2	inactive: -0.21
GUAGUACUCUAGAUCGAAUTT against SOS2	inactive: 0.3
CAACAUACCUAGACCUCCATT against LPCAT2	inactive: 0
AAGUGUCAGUGAGAAUGAATT against CACNG2	inactive: 0.00759
CGACUCUGAUCGUUAUGAUTT against PFKFB2	inactive: 0.311
GCAGCUACCUUUAGAUUCATT against MTHFD1	inactive: 0.554
CAGUAUGUGCUAUAAUAUUTT against FZD4	inactive: 0.0695
ACAUAAAGGUGAAAAGCGATT against NEFH	inactive: 0.688
CCAAGAUGAUUGUCCCAAATT against AGTR1	inactive: 0.106
ACAAUGCCUUUGACCAGUATT against CAPZB	inactive: -0.106
GUCCGAGUGUGGUUCUGUATT against POU5F1	inactive: 0.0495
GCAACUGCUUUAAACCCGATT against SMG1	inactive: -0.106
GCCUGGUAUUUUGAAAUCATT against ASH2L	inactive: -0.464
UGUCCGUGCUUGCCUCGUATT against ATP13A1	inactive: 0.488
GCCCAAAACUUGCUAAACATT against ZNF165	inactive: 0.602
GGAGAGUGUAGAUCCCAAATT against IL1B	inactive: -0.21
GCAGCGAGAAUUUCGACGATT against CRABP1	inactive: -0.625
GGGCUAAACUCUCCAAGCUTT against SLC46A1	inactive: -0.00763
GCAUCAUCGUCUACCGCAATT against ADAM8	inactive: -0.407
CCAUCGAUGUCUCUGCUAUTT against ABCA1	active: -1.27

Sequence	median seed-adjusted z-score
GCACUAAGAGUGACGUGUATT against PSKH1	active: -2.03
GCAACGACAUCAUUGUUCUTT against CTNNA3	inactive: 0.249
UAACCACUCUGUGCAAGUATT against VEGFB	inactive: 0
GGUGGAUUCCUAACUAUGATT against GPR34	inactive: 0.529
GAUGAUUGGUGUGACGGAATT against AGPAT4	inactive: 0.149
GGCCUUUGGUGAAAACCGUTT against CLDN11	inactive: 0.268
CCAGCGAUACCUACAAGAATT against CAPN2	inactive: -0.0828
GCAGUGAAGGUACUACAGATT against SGK2	inactive: 0.306
GGCUUAUGACUGCCUAUAATT against SEL1L	inactive: 0.438
GGACUUUGAUUGCUAGCAATT against CTRC	inactive: -0.104
GGGCAAUGCUGGAAUGGUUTT against JRKL	inactive: -0.227
GGUCCCUAAUGAGCACAGATT against SLC12A7	inactive: -0.0309
GACCGUUCAGUAUAUACUATT against ATP6V1H	inactive: 0.146
CAGAGGCUGGUGCACAGUUTT against SPRR4	inactive: 0.211
GUACAUCGAGUGAAGAUUATT against ROD1	inactive: 0.42
CGAAGAUCAUAUCUACCAATT against TCEA3	inactive: -0.28
CUACACCUGUUUCAACAGATT against USPL1	active: -1.87
CUCUGACUUUGACUACUCATT against TFF1	inactive: -0.469
GCCAUGAACCGCCACAACATT against WNT3A	inactive: -0.66
GGAUAGCACAUGAUACAGATT against GAN	active: -1.07
GCAUAGAAAUCCAAAGUAUTT against CYP39A1	inactive: 0.196
GGCGAAGCAUGAAGCGGAATT against VDR	inactive: -0.031

Sequence	median seed-adjusted z-score
GAUCGUAUGCAGAAGGAAATT against ACTC1	inactive: 0
CGUGAACCUAGAAACCCAATT against IL27RA	inactive: 0.887
GAGCUCAACGUACAAAAGATT against STX11	inactive: -0.518
GGAUAUCACUACUUUAACUTT against NDUFS4	inactive: 0.336
GACUAAAGCUUGUCUCAGATT against HARS	inactive: -0.722
CCACCAUGAUGUUCGGGUATT against CDC20	inactive: 0.191
CCUCUUCCACCGCUACUUCTT against TREX2	inactive: -0.918
CGGGAGAACGGGAUCAAUATT against DHPS	inactive: 0.0662
CCAGGUCUUUCUUAACGUATT against EMX1	inactive: -0.689
AGAUCGCAGAGAACAACGATT against BIN1	inactive: 0
GGAAGAAUCGGAAAAACAATT against ZBTB46	inactive: 0.0546
UCUUGGACUUGUCCAAGUATT against LSM7	inactive: -0.45
GGAUGUGGAUGGAACAACATT against ITGA7	inactive: 0.13
CAAUGAGAAGUUUUACGAUTT against ZBED4	inactive: -0.553
GGAGGGCAGGUUACAAAGATT against ZKSCAN4	inactive: 0.0558
GGGCAGAAUUGGAAUGCGATT against CNTNAP4	inactive: -0.414
GCUGCUUUGUUCUAGGUCATT against LRIT3	inactive: 0.0324
GCAGUACGGAAGCUACCGATT against SS18L1	inactive: -0.174
GGCUAUACAGGGUAGACAATT against PXDNL	inactive: -0.186
CCGAUCCAUUAUCAACAUATT against ARSJ	inactive: -0.0978

Fetched one by one from the entries so far, five records:
Sequence	median seed-adjusted z-score
GCAGCGAGAAUUUCGACGATT against CRABP1	inactive: -0.625
CACUAACUGUUUCGAAUGATT against CAPZA1	inactive: -0.0237
GGGCUAAACUCUCCAAGCUTT against SLC46A1	inactive: -0.00763
GCUCCUUUAGGUUAUGAUATT against ASH2L	inactive: -0.464
ACAUAAAGGUGAAAAGCGATT against NEFH	inactive: 0.688

A second format for part of the listing above:
Sequence,median seed-adjusted z-score
CCAAUACAAUCGGAUCUCUTT against NRIP2,inactive: 0.415
GCCUGGUAUUUUGAAAUCATT against ASH2L,inactive: -0.464
UGUCCGUGCUUGCCUCGUATT against ATP13A1,inactive: 0.488
CGUGAACCUAGAAACCCAATT against IL27RA,inactive: 0.887
